# Test results as given in patent US20100310591A1 (priority 2009, published 2010).
# Some entries share one result that the patent states for a list of compounds. Some compounds share one range, which may span the group rather than tell each member.
# Test system: CD4+ T cells (CD8+ depleted PBMC of rHA-responsive donors)
# Format: cell-based, human
row,Sequence,"magnitude of response, range over donors"
1,KMEDGFLDVWTYNAELL [BEI 73],20-57 fold above background
2,KRGLFGAIAGFIEGGWQ [BEI 59],20-57 fold above background
3,LDVWTYNAELLVLMENE [BEI 74],20-57 fold above background
